In PubChem BioAssay AID463205 (Broad Institute, 2010):
The campaign covered roughly 2,400 compounds. About 20 (0.8%) were called active.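 Rule for the calls: active = AC50 no more than ten times the highest tested concentration, or full inhibition at every dose giving a flat fit (cut at about 30 µM in these data); inconclusive = flat fit with activity between 30% and 70%, or poor-quality invalid fit; inactive = AC50 more than ten times the top tested dose.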 The list shows a part of the results.

test: inhibitors of ADP-Glo detection reagents, dose response, artefact control for GSK-3a inhibitor project, biochemical, luminescence, cell-free, homogeneous (AID 463205); details: 5 uM ADP;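 note: kinase-free counter-screen against the ADP-Glo detection reagents only; potency is for inhibitors that reduce the luminescence signal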

AC50, inactive:
CC(=O)c1cc(-c2ccc(F)cc2)n(CCC(=O)NC(C)(C)C)c1C > 30 µM
C#CCSc1nnc(-c2ccc(O)cc2)o1 > 30 µM
COC(=O)c1ccc(CSc2n[nH]c(=S)s2)o1 > 30 µM
CCOC(=O)c1[nH]c2c(c1-c1ccc(OC)cc1)C(=O)CC(c1ccc(OC)c(OC)c1)C2 (stereo unspecified) > 30 µM
Cn1cc([N+](=O)[O-])c(C(=O)Nc2cnn(Cc3ccc(F)cc3)c2)n1 > 30 µM
Cc1onc(-c2ccccc2Cl)c1C(=O)Nc1cccc(-c2nc3ncccn3c2C)c1 > 30 µM
O=C1/C(=C/c2ccc(O)c(O)c2)Oc2cc(O)ccc21 > 30 µM
COc1ccc(Nc2nc(-c3ccccc3)cs2)cc1 > 30 µM
CCC(=O)C1CCCN(C(=O)CCc2nnc(-c3ccc4c(c3)OCO4)o2)C1 (stereo unspecified) > 30 µM
O=C1OCCC/C1=C\c1ccc2c(c1)OCO2 > 30 µM
CSc1cccc(NC(=O)CN(C)S(=O)(=O)c2cnc[nH]2)c1 > 30 µM
C[C@H](CO)N1C[C@H](C)[C@@H](CN(C)S(=O)(=O)c2ccc(F)cc2)Oc2c(NC(=O)Cc3ccccc3)cccc2C1=O > 30 µM
O=C1N/C(=N\S(=O)(=O)Cc2ccccc2)S/C1=C/c1cccc([N+](=O)[O-])c1 > 30 µM
CC[n+]1c(/C=C/N(C)c2ccccc2)n(-c2ccccc2)c2ccc(-c3nc4ccccc4s3)cc21 > 30 µM
COc1ccc(C(=O)c2ccccc2Cl)cc1 > 30 µM
COc1ccc(C(=O)c2cc(C(C)=O)c(Nc3ccccc3)s2)cc1 > 30 µM
CCCC(NS(=O)(=O)c1ccc(OC)cc1)C(=O)O (stereo unspecified) > 30 µM
COc1ccccc1NC(=O)c1cc2ccc(O)cc2o/c1=N\O > 30 µM
NC1=NC(=O)/C(=C\c2ccco2)S1 > 30 µM
O=[N+]([O-])c1ccc(-c2nnc(-c3ccccc3)c(NCCCO)n2)cc1 > 30 µM
c1ccc(-c2noc(-c3ccc4c(c3)OCO4)n2)cc1 > 30 µM
Cc1c(C(=O)N2CCOCC2)oc2ccc(S(=O)(=O)N3CCCC3)cc12 > 30 µM
COc1cccc(N=C2NC(=O)/C(=C/c3cc([N+](=O)[O-])ccc3O)S2)c1 > 30 µM
CCCCOC(=O)Nc1nnc(COc2ccccc2)s1 > 30 µM
Oc1ccc2cccnc2c1 > 30 µM
O=c1[nH]c2c(s1)C(c1cccnc1)C1C3CCC(C3)C1S2 (stereo unspecified) > 30 µM
COc1ccccc1C(=O)NC(C)c1ccccc1 (stereo unspecified) > 30 µM
O=c1[nH]nc(SCCS(=O)(=O)c2ccc(F)cc2)n1-c1ccccc1C(F)(F)F > 30 µM
COc1ccc(OC)c(/C=C2\NC(=O)NC2=O)c1 > 30 µM
CC(=O)c1c(O)ccc2c(-c3ccccc3)cc(=O)oc12 > 30 µM
COC(=O)c1c(NC(=O)CN2C(=O)NC3(CCC(C)CC3)C2=O)sc2c1CCC2 (stereo unspecified) > 30 µM
COC(=O)/C=C1/S/C(=N/NC(=O)c2ccccc2OC)NC1=O > 30 µM
Clc1ccccc1C1=Nn2c(nnc2-c2ccncc2)SC1 > 30 µM
C=CCNc1nc(N)c(C(=O)c2ccc3c(c2)OCO3)s1 > 30 µM
Oc1ccc(-c2csc(Nc3cccnc3)n2)cc1 > 30 µM
COc1ccc(C2=Nn3c(nnc3-c3cccnc3)SC2)cc1OC > 30 µM
Cn1c(=O)c2[nH]cnc2n(-c2ccccc2)c1=O > 30 µM
C#CCOCCOCCOCCNc1nc(N2CCN(C(=O)CCCCCCCCCCNC(=O)[C@H](CCCCN)n3cc(C)nn3)CC2)nc(N2CCN(C(=O)CCCCCCCCCCNC(=O)[C@@H]([C@H](C)CC)n3cc(CCCCCN)nn3)CC2)n1 > 30 µM
Fc1ccccc1-c1nnc2ccc3ccccc3n12 > 30 µM
COc1c(NC(C)=O)c2ccccc2c2ccccc12 > 30 µM
CN1CCN(c2ccc(NC(=O)c3ccc(Br)o3)cc2)CC1 > 30 µM
COc1cc(N/N=C/c2ccccc2O)ncn1 > 30 µM
Cc1cccc(C)c1OCC(O)CNC(C)(C)C (stereo unspecified) > 30 µM
N#CC1=C(S)N(c2ccccc2)C(c2ccco2)NC1=O (stereo unspecified) > 30 µM
CCOC(=O)c1cnc2ccc(OCC)cc2c1N1CCN(c2ccccc2OC)CC1 > 30 µM
Cc1ccnc(NC(=O)CCC(=O)N(CC(=O)NCc2ccc(F)cc2)CC2CCCO2)c1 (stereo unspecified) > 30 µM
CC(=O)N(C)c1ccc(N=Cc2cc3c(cc2[N+](=O)[O-])OCO3)cc1 > 30 µM
CCc1c(C)nc2c(C#N)c(C)[nH]n2c1=O > 30 µM
CC(C)OC(=O)c1nnn(-c2nonc2N)c1CN1CCCCCC1 > 30 µM
CCN1/C(=C\C(C)=O)Sc2ccc(OC)cc21 > 30 µM
COc1ccccc1C(=O)NNC(=O)c1cccc(F)c1 > 30 µM
COc1ccc(C(CNc2ccc(S(=O)(=O)N3CCCC3)cc2[N+](=O)[O-])N2CCCC2)cc1 (stereo unspecified) > 30 µM
COc1cc2c(C#N)c(N3CCCC3)nc(N)c2c(N)n1 > 30 µM
CCCCCCCCCCCCCCCC[N+](C)(C)CC > 30 µM
O=C(c1ccc(F)cc1)c1cnc(Nc2ccccc2)s1 > 30 µM
CCOc1ccc2ccccc2c1/C=N/n1cncn1 > 30 µM
COc1ccc(C(=O)c2sc(NC(C)C)nc2N)cc1OC > 30 µM
COc1cccc(/C=C2\Oc3cc(OCC(=O)N4CCC[C@H]4C(=O)O)ccc3C2=O)c1 > 30 µM
Cc1noc(C)c1COc1ccc(C(=O)OCC(=O)Nc2c(C)n(C)n(-c3ccccc3)c2=O)cc1 > 30 µM
CCOc1cccc(-c2c(C(=O)N/N=C/c3ccoc3)nnn2-c2nonc2N)c1 > 30 µM
CCOC(=O)N1CCC(N2CCN(S(=O)(=O)c3ccc(C)cc3)CC2)CC1 > 30 µM
CCCc1cc(NCc2ccccn2)n2c(nc3ccccc32)c1C#N > 30 µM
NC1=NC(=O)/C(=C\c2ccc(-c3ccc(Cl)cc3)o2)S1 > 30 µM
CCOC(=O)c1nnn(-c2nonc2N)c1-c1ccc(Br)cc1 > 30 µM
Cc1nc(NC(=O)c2ccc(Br)o2)sc1C > 30 µM
COc1ccccc1NC(=O)CSc1nnc(-c2ccccc2)o1 > 30 µM
CC1Cc2ccccc2N1c1ncnc2nc[nH]c12 (stereo unspecified) > 30 µM
CCCc1nnc(NC(=O)CCN2C(=O)c3ccccc3C2=O)s1 > 30 µM
Clc1ccc(N/N=C/c2ccncc2)cc1Cl > 30 µM
O=Cc1cc(N=Nc2ccc(S(=O)(=O)O)cc2)ccc1O > 30 µM
O=Nc1c(-c2c(O)[nH]c3cc(Br)ccc23)[nH]c2ccccc12 > 30 µM
CC(=O)c1cc(-c2ccc(F)cc2)n(CCC(=O)Nc2cc(C)[nH]n2)c1C > 30 µM
O=C(Nc1ccccc1N1CCOCC1)c1cnccn1 > 30 µM
CCn1c(=O)[nH]c(=O)c2c(N)c(C(=O)c3ccccc3OC)sc21 > 30 µM
Cc1cc2nc(-c3cccnc3SCC(=O)NC(C)C)[nH]c2cc1C > 30 µM
Cc1cc(C(=O)CN(Cc2ccc(F)cc2)S(=O)(=O)c2ccc3c(c2)OCCO3)c(C)n1C > 30 µM
CCOC(=O)c1nc(NCc2cccnc2)c2ccccc2n1 > 30 µM
COc1cccc(/C=N/n2cncn2)c1OCC#N > 30 µM
Cc1ccc(Cn2cc(/C=N/Nc3ccc([N+](=O)[O-])cn3)c3ccccc32)cc1 > 30 µM
Cc1ccnc(NC(=O)C(C)N2C(=O)c3ccccc3S2(=O)=O)c1 (stereo unspecified) > 30 µM
COc1cc(/C(C)=N/NC(=O)c2nnn(-c3nonc3N)c2-c2cccs2)ccc1O > 30 µM
C[C@H](CO)N1C[C@H](C)[C@@H](CN(C)S(=O)(=O)c2cccs2)Oc2c(NS(=O)(=O)c3ccc(F)cc3)cccc2C1=O > 30 µM
C[C@H](CO)N1C[C@H](C)[C@@H](CN(C)S(=O)(=O)c2ccccc2)Oc2c(NS(=O)(=O)c3ccc(F)cc3)cccc2C1=O > 30 µM
COc1ccc(NC(=O)CSc2nnc(-c3cccc(O)c3)o2)cc1 > 30 µM
CC1=NN(c2nc(-c3ccc(Cl)cc3)cs2)C(=O)C1 > 30 µM
CCc1ccc(C2CC(c3ccccc3Cl)Nc3nc(N)nn32)cc1 (stereo unspecified) > 30 µM
CCOc1cccc(-c2c(C(=O)N/N=C(\C)c3cccnc3)nnn2-c2nonc2N)c1 > 30 µM
NS(=O)(=O)c1ccc(Nc2nc(-c3cccnc3)cs2)cc1 > 30 µM
Cc1cc(=O)[nH]c(SCC(=O)O)c1C#N > 30 µM
C=CCNC(=S)N1CCN(c2cccc(C(F)(F)F)c2)CC1 > 30 µM
COc1ccccc1C(=O)NNC(=O)c1cccc(Br)c1 > 30 µM

Sorted by number of heavy atoms (smallest number first): some entries from above.
AC50, inactive:
CC1=NN(c2nc(-c3ccc(Cl)cc3)cs2)C(=O)C1 > 30 µM
COc1ccccc1NC(=O)c1cc2ccc(O)cc2o/c1=N\O > 30 µM
O=C1N/C(=N\S(=O)(=O)Cc2ccccc2)S/C1=C/c1cccc([N+](=O)[O-])c1 > 30 µM
Cc1cc(C(=O)CN(Cc2ccc(F)cc2)S(=O)(=O)c2ccc3c(c2)OCCO3)c(C)n1C > 30 µM

Pulled by structure from the entries so far, 4 records:
AC50, inactive:
COc1ccc(OC)c(/C=C2\NC(=O)NC2=O)c1 > 30 µM
COC(=O)/C=C1/S/C(=N/NC(=O)c2ccccc2OC)NC1=O > 30 µM
CSc1cccc(NC(=O)CN(C)S(=O)(=O)c2cnc[nH]2)c1 > 30 µM
C[C@H](CO)N1C[C@H](C)[C@@H](CN(C)S(=O)(=O)c2ccc(F)cc2)Oc2c(NC(=O)Cc3ccccc3)cccc2C1=O > 30 µM
